The list shows a part of the results. The data scatter; read single values as rough.
compound: ClCC(=O)N[C@H]1CCCc2ccccc12; assay: log2 mean competition ratio of IA-DTB cysteine labelling (DMSO/compound) (log2 ratio); higher = stronger cysteine engagement by compound; details: 200 µM; treatment time: 4 h; cell line lysate: HEK293T
Experimental: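 IA-DTB competitive cysteine chemoproteomics in HEK293T RIPA lysate. Lysates were treated with compound 29 or 30 at 50 or 200 µM for 4 h, then IA-DTB (500 µM, 1 h), trypsin-digested, NeutrAvidin-enriched and analysed by diaPASEF. Competition ratio = intensity DMSO / intensity compound (n=4 treated, n=64 DMSO); binding: mean log2 CR ≥ 1 and p ≤ 0.05 plus QC filters. Target is the cysteine site.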

Protein sequences, listed by entry. Tags and fused reporters are not part of them. Lines headed by an entry give the natural chain unless they say otherwise; changes in a name come on top.
UniProt O00743: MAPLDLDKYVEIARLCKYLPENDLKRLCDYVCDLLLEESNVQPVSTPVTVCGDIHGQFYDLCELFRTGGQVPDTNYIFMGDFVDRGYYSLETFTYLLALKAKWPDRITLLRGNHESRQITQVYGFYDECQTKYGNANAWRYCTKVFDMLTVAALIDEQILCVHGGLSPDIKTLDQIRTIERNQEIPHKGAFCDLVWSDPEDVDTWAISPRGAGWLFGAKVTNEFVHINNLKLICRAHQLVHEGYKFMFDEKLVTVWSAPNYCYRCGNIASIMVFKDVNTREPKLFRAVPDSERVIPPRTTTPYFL
UniProt P41743, whole entry, looked up: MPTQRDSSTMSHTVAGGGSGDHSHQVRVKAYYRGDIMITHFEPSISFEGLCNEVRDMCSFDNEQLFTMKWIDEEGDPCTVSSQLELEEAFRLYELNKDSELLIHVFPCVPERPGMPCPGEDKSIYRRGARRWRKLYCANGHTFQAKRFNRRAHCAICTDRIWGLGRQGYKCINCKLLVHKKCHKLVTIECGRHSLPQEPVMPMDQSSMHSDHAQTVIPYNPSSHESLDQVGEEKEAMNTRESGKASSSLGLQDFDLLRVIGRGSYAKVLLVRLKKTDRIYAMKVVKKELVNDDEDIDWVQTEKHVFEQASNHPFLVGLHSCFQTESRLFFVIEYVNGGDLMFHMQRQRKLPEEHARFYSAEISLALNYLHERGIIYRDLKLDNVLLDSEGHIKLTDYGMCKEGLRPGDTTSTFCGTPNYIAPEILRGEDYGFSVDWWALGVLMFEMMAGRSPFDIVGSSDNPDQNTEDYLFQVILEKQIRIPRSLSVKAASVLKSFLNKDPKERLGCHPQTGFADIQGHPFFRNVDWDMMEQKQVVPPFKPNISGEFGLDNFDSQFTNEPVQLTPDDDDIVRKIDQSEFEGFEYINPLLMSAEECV
UniProt Q06203: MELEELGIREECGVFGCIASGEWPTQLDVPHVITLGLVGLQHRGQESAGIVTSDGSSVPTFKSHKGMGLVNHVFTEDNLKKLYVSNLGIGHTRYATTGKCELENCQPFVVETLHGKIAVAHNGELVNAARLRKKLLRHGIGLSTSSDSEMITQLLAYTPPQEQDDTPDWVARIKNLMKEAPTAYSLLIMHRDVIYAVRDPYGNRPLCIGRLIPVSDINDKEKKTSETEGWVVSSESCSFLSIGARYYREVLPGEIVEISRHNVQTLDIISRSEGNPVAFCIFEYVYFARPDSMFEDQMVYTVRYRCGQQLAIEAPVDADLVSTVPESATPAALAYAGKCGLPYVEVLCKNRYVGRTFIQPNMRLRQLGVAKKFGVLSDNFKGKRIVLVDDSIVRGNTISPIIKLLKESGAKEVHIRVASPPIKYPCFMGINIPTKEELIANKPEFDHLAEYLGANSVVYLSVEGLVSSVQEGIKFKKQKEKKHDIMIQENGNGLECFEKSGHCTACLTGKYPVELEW
UniProt P31323, whole entry, looked up: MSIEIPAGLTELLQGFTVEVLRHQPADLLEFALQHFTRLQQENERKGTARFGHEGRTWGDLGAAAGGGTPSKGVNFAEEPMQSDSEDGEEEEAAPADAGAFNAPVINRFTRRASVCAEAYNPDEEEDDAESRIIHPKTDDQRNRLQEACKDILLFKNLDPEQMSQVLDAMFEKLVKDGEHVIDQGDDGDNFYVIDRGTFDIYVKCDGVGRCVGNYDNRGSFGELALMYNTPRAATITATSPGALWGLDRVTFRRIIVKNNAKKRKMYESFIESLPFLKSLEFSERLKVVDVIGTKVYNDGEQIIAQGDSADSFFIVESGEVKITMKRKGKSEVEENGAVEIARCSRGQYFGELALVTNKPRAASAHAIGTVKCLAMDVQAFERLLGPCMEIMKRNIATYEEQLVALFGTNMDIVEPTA
UniProt Q86WR7: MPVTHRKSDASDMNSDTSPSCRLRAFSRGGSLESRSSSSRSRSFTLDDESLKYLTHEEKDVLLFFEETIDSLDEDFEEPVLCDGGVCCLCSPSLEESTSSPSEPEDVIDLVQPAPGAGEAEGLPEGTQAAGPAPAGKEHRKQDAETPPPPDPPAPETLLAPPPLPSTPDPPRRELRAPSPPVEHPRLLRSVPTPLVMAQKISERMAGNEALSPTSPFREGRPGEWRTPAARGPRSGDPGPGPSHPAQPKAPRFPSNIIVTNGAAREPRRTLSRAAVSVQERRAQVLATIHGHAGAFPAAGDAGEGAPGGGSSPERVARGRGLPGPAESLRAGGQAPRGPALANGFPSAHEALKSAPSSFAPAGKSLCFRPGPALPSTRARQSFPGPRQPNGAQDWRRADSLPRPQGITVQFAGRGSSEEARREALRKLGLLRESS
UniProt Q13976: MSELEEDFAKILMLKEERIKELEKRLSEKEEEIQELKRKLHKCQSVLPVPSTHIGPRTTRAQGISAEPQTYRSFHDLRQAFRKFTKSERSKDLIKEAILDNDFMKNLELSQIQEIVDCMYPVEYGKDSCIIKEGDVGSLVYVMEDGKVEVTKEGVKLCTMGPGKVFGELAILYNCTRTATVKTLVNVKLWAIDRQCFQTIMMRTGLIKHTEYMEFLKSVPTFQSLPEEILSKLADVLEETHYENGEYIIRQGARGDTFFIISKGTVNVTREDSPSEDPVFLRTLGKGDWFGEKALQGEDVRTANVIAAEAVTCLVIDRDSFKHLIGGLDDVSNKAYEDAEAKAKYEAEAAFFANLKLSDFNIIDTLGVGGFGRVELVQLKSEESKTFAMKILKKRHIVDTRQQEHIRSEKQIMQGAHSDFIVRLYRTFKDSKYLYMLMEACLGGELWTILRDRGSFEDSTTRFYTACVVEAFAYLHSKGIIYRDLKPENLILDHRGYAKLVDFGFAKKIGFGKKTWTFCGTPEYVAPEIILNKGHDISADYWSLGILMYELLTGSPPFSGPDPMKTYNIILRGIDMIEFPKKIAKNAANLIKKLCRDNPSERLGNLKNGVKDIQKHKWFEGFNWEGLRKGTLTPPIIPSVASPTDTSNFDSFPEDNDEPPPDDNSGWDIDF
UniProt Q13523: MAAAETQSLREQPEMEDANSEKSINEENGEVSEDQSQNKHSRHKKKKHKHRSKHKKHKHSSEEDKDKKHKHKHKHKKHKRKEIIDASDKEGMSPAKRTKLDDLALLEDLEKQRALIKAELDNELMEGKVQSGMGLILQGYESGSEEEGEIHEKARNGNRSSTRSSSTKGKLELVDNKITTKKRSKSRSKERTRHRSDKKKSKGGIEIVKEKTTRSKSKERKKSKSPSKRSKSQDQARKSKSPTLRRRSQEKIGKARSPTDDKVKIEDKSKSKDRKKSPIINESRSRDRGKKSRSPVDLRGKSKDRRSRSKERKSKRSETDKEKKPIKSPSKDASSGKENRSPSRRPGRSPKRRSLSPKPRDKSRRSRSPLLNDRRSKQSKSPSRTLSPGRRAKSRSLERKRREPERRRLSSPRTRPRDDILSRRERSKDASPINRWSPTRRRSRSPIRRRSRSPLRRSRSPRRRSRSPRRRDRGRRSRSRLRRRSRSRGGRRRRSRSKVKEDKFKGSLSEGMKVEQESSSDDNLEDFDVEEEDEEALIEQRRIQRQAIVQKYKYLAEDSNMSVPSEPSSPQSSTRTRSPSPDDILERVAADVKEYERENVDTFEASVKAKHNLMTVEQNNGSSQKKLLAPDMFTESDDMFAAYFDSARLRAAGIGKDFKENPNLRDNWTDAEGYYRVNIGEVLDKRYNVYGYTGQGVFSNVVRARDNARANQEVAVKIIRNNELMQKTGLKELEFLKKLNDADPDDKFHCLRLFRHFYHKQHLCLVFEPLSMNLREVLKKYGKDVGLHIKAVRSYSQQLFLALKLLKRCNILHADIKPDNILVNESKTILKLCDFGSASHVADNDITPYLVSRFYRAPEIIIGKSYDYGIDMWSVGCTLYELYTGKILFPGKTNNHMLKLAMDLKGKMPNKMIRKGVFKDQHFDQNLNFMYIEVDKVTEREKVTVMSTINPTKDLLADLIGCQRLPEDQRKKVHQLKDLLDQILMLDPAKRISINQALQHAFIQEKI
UniProt Q969H6: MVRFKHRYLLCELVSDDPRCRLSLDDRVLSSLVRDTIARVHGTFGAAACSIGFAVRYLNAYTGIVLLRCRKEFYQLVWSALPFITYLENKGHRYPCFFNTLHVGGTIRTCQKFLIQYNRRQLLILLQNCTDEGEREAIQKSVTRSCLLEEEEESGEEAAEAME
UniProt Q15172: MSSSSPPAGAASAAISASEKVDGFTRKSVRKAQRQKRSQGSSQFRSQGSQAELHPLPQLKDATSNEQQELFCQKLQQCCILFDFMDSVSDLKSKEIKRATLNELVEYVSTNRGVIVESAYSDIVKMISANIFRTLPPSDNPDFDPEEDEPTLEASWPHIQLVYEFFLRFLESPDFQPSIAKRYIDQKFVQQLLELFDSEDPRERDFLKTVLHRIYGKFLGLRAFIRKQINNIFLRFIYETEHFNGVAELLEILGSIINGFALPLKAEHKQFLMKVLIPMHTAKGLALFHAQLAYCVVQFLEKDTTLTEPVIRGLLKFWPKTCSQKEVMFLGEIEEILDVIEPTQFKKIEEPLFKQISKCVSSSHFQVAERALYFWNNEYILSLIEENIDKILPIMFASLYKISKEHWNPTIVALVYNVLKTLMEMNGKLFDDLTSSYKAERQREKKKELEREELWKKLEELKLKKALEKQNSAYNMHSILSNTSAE

Target | log2 mean competition ratio
PPP6C C129 (UniProt O00743) | -0.179
PRKCI C190 (UniProt P41743) | 0.121
PPAT C496 (UniProt Q06203) | -0.0439
PRKAR2B C373 (UniProt P31323) | 0.0254
PROSER2 C21 (UniProt Q86WR7) | 0.244
PRKG1 C43 (UniProt Q13976) | -0.202
PRKDC C2469 (UniProt P78527) | 0.248
PRPF4B C750 (UniProt Q13523) | -0.00556
PRDM6 C168 | 0.113
POP5 C146 (UniProt Q969H6) | 0.185
PPP2R5A C72 (UniProt Q15172) | 0.306
